{
  "source": "paper doi:10.1101/2020.09.21.305680",
  "binders": {"B1": {"name": "Esa1 (protein, UniProt Q08649 1-445)", "chain": "MSHDGKEEPGIAKKINSVDDIIIKCQCWVQKNDEERLAEILSINTRKAPPKFYVHYVNYNKRLDEWITTDRINLDKEVLYPKLKATDEDNKKQKKKKATNTSETPQDSLQDGVDGFSRENTDVMDLDNLNVQGIKDENISHEDEIKKLRTSGSMTQNPHEVARVRNLNRIIMGKYEIEPWYFSPYPIELTDEDFIYIDDFTLQYFGSKKQYERYRKKCTLRHPPGNEIYRDDYVSFFEIDGRKQRTWCRNLCLLSKLFLDHKTLYYDVDPFLFYCMTRRDELGHHLVGYFSKEKESADGYNVACILTLPQYQRMGYGKLLIEFSYELSKKENKVGSPEKPLSDLGLLSYRAYWSDTLITLLVEHQKEITIDEISSMTSMTTTDILHTAKTLNILRYYKGQHIIFLNEDILDRYNRLKAKKRRTIDPNRLIWKPPVFTASQLRFAW"}},
  "test_in_all_cases": "two-hybrid",
  "key": {"[1]": {"biological_target": "T1, Sld3^Esa1(-)-3 (S. cerevisiae) (UniProt P53135)", "T1 sequence": "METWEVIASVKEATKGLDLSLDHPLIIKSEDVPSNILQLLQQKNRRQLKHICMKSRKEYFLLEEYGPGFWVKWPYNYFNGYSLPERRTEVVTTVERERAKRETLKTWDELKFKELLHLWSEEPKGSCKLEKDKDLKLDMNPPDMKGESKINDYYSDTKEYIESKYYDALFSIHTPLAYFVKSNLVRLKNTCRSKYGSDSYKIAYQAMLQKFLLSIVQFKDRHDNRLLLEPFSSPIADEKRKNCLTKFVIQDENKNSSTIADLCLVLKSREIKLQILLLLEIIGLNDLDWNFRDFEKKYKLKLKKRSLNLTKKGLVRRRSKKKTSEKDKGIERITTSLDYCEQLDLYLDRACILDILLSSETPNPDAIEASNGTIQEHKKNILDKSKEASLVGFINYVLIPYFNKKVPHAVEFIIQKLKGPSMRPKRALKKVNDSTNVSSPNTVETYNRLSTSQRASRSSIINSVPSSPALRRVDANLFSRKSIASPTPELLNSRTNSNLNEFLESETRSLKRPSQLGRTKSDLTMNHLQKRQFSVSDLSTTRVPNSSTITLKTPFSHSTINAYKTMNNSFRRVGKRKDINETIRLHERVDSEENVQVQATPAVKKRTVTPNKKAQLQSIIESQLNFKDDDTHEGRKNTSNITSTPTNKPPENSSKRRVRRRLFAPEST"}, "[2]": {"biological_target": "T2, Sld3 S459L (S. cerevisiae) (UniProt P53135)", "T2 sequence": "T1 sequence with T157P, S193T, L264V, S459L, Q623P"}, "[3]": {"biological_target": "T3, Sld7 (S. cerevisiae) (UniProt Q08457)", "T3 sequence": "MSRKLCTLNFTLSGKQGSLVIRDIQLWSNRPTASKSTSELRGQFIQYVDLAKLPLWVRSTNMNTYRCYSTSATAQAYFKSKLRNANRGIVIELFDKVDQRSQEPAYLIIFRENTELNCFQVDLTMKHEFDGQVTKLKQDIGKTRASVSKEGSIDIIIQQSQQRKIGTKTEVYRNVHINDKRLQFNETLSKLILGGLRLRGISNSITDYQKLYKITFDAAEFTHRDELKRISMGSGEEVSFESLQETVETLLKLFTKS"}, "[4]": {"biological_target": "T4, Cdc45 (S. cerevisiae) (UniProt Q08032)", "T4 sequence": "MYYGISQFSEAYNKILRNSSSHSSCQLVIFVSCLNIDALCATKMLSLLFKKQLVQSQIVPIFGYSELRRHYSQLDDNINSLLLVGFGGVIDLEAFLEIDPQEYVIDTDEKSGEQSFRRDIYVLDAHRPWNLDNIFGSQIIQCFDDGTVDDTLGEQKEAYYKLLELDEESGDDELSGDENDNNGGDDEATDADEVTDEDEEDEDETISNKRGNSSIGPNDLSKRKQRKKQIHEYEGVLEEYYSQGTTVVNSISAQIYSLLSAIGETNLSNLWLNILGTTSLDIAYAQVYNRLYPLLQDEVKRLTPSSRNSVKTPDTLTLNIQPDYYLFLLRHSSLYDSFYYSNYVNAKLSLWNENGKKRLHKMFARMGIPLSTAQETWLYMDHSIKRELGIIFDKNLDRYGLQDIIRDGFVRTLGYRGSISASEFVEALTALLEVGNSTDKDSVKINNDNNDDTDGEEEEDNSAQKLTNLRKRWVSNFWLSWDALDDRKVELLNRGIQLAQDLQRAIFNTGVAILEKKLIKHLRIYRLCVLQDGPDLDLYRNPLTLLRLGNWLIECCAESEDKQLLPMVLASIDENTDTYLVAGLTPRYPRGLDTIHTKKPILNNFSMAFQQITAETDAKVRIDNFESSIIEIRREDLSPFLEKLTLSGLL"}},
  "note": "Numbering of substitutions follows the chain as printed. No constants are given. Whether binding was seen depends on the method and setting. Some entries that bind do so weakly or less than the wild type.",
  "data": [
    {"binder": "B1", "values": [
      {"measurement": "binding", "setting": "[1]", "result": "no binding"},
      {"measurement": "binding", "setting": "[2]", "result": "binds"},
      {"measurement": "binding", "setting": "[3]", "result": "binds weakly"},
      {"measurement": "binding", "setting": "[4]", "result": "no binding"}
    ]}
  ]
}
